Binding data for 2 substances are collected here from article PMC11492288.

Chains of the proteins cited; added tags and fusions are not shown.
UniProt Q14790: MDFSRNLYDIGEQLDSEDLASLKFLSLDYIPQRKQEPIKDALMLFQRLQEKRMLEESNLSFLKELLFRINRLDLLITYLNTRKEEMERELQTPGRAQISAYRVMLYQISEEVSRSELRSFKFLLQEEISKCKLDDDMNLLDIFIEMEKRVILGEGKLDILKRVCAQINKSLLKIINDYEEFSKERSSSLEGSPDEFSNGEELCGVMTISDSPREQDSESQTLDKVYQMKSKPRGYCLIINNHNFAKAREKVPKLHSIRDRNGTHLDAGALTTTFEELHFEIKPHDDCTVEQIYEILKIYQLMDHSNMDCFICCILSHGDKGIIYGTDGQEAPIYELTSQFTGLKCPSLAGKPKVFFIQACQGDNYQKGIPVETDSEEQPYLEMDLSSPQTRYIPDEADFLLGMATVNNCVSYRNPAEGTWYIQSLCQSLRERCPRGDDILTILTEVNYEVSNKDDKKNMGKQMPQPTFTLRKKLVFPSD
UniProt P29466: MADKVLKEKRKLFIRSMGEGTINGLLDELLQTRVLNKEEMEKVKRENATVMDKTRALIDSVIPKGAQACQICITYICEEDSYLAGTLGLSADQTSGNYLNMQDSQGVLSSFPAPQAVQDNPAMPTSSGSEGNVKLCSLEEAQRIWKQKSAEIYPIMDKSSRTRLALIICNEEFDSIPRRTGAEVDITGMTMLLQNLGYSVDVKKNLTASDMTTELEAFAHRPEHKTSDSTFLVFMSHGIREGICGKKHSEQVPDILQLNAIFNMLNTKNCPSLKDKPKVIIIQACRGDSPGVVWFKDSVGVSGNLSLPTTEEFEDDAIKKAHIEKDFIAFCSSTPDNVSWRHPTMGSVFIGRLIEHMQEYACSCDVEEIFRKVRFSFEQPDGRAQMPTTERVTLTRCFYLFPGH

The target of the assay is T1, NLRP10-FLAG (human) (UniProt Q86W26).
T1 sequence: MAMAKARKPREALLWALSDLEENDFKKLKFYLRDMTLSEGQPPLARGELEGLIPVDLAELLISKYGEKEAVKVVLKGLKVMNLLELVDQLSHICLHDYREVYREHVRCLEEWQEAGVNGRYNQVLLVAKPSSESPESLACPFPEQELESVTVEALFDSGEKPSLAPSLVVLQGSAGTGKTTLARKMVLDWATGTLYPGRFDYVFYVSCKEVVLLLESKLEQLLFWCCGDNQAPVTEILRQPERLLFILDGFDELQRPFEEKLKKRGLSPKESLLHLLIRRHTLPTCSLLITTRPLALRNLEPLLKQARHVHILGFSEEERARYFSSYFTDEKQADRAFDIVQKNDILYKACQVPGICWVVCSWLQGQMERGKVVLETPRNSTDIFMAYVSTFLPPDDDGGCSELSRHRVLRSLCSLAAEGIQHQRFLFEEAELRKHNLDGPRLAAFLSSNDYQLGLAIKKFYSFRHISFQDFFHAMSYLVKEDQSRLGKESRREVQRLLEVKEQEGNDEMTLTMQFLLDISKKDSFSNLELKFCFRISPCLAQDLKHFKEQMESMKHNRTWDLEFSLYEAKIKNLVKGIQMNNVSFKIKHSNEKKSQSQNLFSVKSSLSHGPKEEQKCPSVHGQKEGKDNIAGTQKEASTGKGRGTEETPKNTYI
As to the kind of experiment: co-IP; NLRP10-FLAG co-transfected with caspase-HA constructs in 293T cells; IP lysis/wash buffer, 1 mg total lysate; pulled down with anti-FLAG resin, eluted with FLAG peptide; Western blot. On the technique in general: Immunoblotting shows a protein as a band on a membrane.

Results are given in words; binding and its absence hold for the method and conditions named. Binding seen in cells or lysates may run through a third protein. Some binding calls cover weakened binding; strength is not graded here. Sequences can lack the tags named with a protein.

Take “caspase-8-HA (from UniProt Q14790 1-479) (enzyme)”: the binding entry is given as “binds”. As for “caspase-1-HA (from UniProt P29466 1-404) (enzyme)”, the binding entry was “binds”.
